# PubChem BioAssay AID485353 (National Center for Advancing Translational Sciences (NCATS), 2010)
# The campaign covered roughly 330,000 compounds. About 610 (0.18%) were called active. The inconclusive results got no clear call from the source; some entries with a clear call stand among them for comparison. Calls follow the shape of the full dose curve. Where the call is inconclusive, the potency comes from a doubtful curve fit.
# Experiment: qHTS of Yeast-based Assay for SARS-CoV PLP; also: nearly all actives have a fitted effect of over 55% in size
# Conditions: S. cerevisiae expressing SARS-CoV PLpro; Potency: growth rescue; series mostly up to 32.9 µM
# Potency is read from the fitted curve at half-maximal effect.
row,SMILES,Potency
1,COC(=O)Cc1nnc(SCC(=O)Nc2ccccc2)c2ccccc12,"inconclusive: 0.398 µM [activator, full curve]"
2,O=C(Nc1ccc(Br)cc1)N1C[C@H]2C[C@@H](C1)c1cccc(=O)n1C2,"inconclusive: 3.55 µM [activator, single point]"
3,CCC(=O)Nc1ccc(C(=O)NNC(=O)c2cccs2)cc1,"inconclusive: 3.55 µM [activator, single point]"
4,CCOc1ccc(NC(=O)C2CCCN(c3cnccn3)C2)cc1 (stereo not drawn),"inconclusive: 3.98 µM [activator, single point]"
5,C/C(CC1CC2=C(CC1(C)C)C(C)(C)CCC2)=N\NC(N)=S (stereo not drawn),active: 11.2 µM
6,O=C(Nc1nc2ccccc2s1)c1ccc(N2CCCCC2)c([N+](=O)[O-])c1,"inconclusive: 4.47 µM [activator, single point]"
7,Cc1ccc(C2CC2C(=O)NNC(=S)Nc2cccc(C)c2)cc1 (stereo not drawn),active: 10 µM
8,CCOC(=O)CNc1c(-c2ccc(OC)cc2)nc2ccc(Cl)cn12,inactive
9,CCn1cc(/C=C(\NC(=O)c2ccccc2Cl)C(=O)N2CCOCC2)c2ccccc21,inactive
10,O=C(/C=C/c1ccc(F)cc1)NCCc1ccc2c(c1)OCCO2,active: 3.98 µM
11,O=C1C2C(C(=O)N1/N=C/c1ccco1)C1C=CC2C12CC2 (stereo not drawn),inactive
12,CCn1c(CSc2nc3ccccc3s2)n[nH]c1=S,"inconclusive: 14.1 µM [activator, partial curve]"
13,COc1ccc(C)cc1N(CC(=O)N1CCCCCC1)S(C)(=O)=O,"inconclusive: 2.82 µM [activator, single point]"
14,Cc1ccc(NC(=O)C(=O)NCCc2c[nH]c3ccccc23)c(C)c1,inactive
15,CC(=O)N1CCN(c2ccccc2NC(=O)c2cc(Br)ccc2Cl)CC1,"inconclusive: 2.82 µM [activator, single point]"
16,Cc1c(Nc2nc(-c3ccc(Cl)cc3)cs2)c(=O)n(-c2ccccc2)n1C,"inconclusive: 10 µM [activator, partial curve, poor fit]"
17,CC(=O)c1c(N2CCN(C(=O)C3CCCO3)CC2)nc(=S)n(-c2ccccc2)c1C (stereo not drawn),"inconclusive: 3.55 µM [activator, single point]"
18,O=C(Cc1ccc(F)cc1)OCC(=O)c1cc2ccccc2o1,"inconclusive: 17.8 µM [activator, single point]"
19,CCOC(=O)CCc1c(C)c(C#N)c2nc3ccccc3n2c1-n1ccnc1,"inconclusive: 11.2 µM [activator, single point]"
20,COc1ccc(N2CCN(C(=O)c3ccc4c(c3)NC(=O)C(CSCc3cccc(F)c3)N4)CC2)cc1 (stereo not drawn),"inconclusive: 22.4 µM [activator, single point]"
21,O=C(O)CSc1c(-c2ccccc2)c2cc(Cl)ccc2[nH]c1=O,"inconclusive: 20 µM [activator, single point]"
22,Cc1cc(C)c2[nH]c(O)c(N=NC(=S)NCC3CCCO3)c2c1 (stereo not drawn),inactive
23,C=CCOc1c(Br)cc(CNc2ccc(NC(=O)C(C)C)c(OC)c2)cc1OCC,inactive
24,Oc1ccc(N2CCN(Cc3ccc(OCCCN4CCCCC4)cc3)CC2)cc1,inactive
25,CC(NC(=O)c1cccs1)C1CCCO1 (stereo not drawn),"inconclusive: 3.98 µM [activator, single point]"

row,SMILES,Potency
1,Cc1ccc(S(=O)(=O)N2CCOCC2)cc1C(=O)OCC(=O)NCCc1ccc(F)cc1,"inconclusive: 12.6 µM [activator, single point]"
2,CC1CCCCN1C(=O)Cn1c(=O)oc2cc(S(=O)(=O)N3CCCC3)ccc21 (stereo not drawn),inactive
3,OCCC1CN(C2CCC2)CCN1Cc1ccc(F)c(F)c1 (stereo not drawn),"inconclusive: 20 µM [activator, single point]"
4,CCOc1ccc(S(=O)(=O)N2Cc3ccccc3CC2C(=O)NCCCn2ccnc2)cc1 (stereo not drawn),"inconclusive: 0.398 µM [activator, full curve]"
5,CCOC(=O)c1c(C)[nH]c(C)c1C(=O)CSc1nc2ccccc2n1CC,"inconclusive: 20 µM [activator, single point]"
6,C=CCN1C(=O)C2(OCCO2)c2cc(C)ccc21,inactive
7,CC(C)NC(=O)N(C)C[C@H]1Oc2ccc(NC(=O)Nc3ccccc3)cc2C(=O)N([C@@H](C)CO)C[C@@H]1C,inactive
8,O=C(N/N=C/c1ccccc1OC(F)F)c1cc(-c2ccncc2)nc2ccccc12,active: 12.6 µM
9,Cc1ccc(C(=O)Nc2cccc(C(=O)NCc3ccco3)c2)cc1,"inconclusive: 4.47 µM [activator, single point]"
10,COC(=O)c1ccc(CNC(=O)Cn2cnc3c(NCc4ccccc4)ncnc32)cc1,"inconclusive: 20 µM [activator, single point]"
11,COc1ccc(/C=N/Nc2cc(=O)n(C)c(=O)n2C)cc1OC,"inconclusive: 2.82 µM [activator, partial curve]"
12,OCC1(Cc2ccc(F)cc2F)CCCN(Cc2ccc(Cl)cc2)C1 (stereo not drawn),"inconclusive: 3.55 µM [activator, single point]"
13,CC(=O)NCC(=O)N1CCC(n2nccc2NC(=O)CCCc2ccccc2)CC1,"inconclusive: 4.47 µM [activator, single point]"
14,Cc1nc(COC(=O)c2c(C)nn(-c3ccccc3)c2C)cs1,inactive
15,COc1cccc(/C=C/C(=O)OCC(=O)Nc2cc(C(F)(F)F)ccc2Cl)c1,"inconclusive: 2.51 µM [activator, partial curve]"
16,Cc1cc(=O)n(-c2ccc3ccccc3n2)[nH]1,"inconclusive: 4.47 µM [activator, single point]"
17,CN1C(=O)N(C)C(=O)C2(Cc3c(ccc4ccccc34)N(C)C2)C1=O,inactive
18,O=C(NCc1ccccc1Cl)C1CCN(S(=O)(=O)c2ccc(-n3cnnn3)cc2)CC1,inactive
19,Nc1ccc2oc(-c3ccccc3Cl)nc2c1,active: 14.1 µM
20,CSc1ncccc1C(=O)Nc1nc2c(C)cccc2s1,inactive
21,C[C@H](NC(=O)N1CCn2c1nc1ccccc12)C(=O)NCc1ccccc1,"inconclusive: 3.55 µM [activator, single point]"
22,O=C(CSc1nnc(-c2c[nH]c3ccccc23)o1)c1ccc(-c2ccccc2)cc1,"inconclusive: 2 µM [activator, single point]"
23,Cn1c(C(=O)N2CCC(C(=O)NCc3ccccc3)CC2)cc2sccc21,inactive
24,CN(CC(=O)Nc1ccccc1C(=O)NC1CC1)Cc1ccco1,inactive
25,CC(C)=CCc1c2c(c3occ(-c4ccc(O)cc4)c(=O)c3c1O)C=CC(C)(C)O2,"inconclusive: 3.16 µM [activator, partial curve]"

# Random excerpt: 3 records from the list
row,SMILES,Potency
8,O=C(N/N=C/c1ccccc1OC(F)F)c1cc(-c2ccncc2)nc2ccccc12,active: 12.6 µM
14,Cc1nc(COC(=O)c2c(C)nn(-c3ccccc3)c2C)cs1,inactive
24,Oc1ccc(N2CCN(Cc3ccc(OCCCN4CCCCC4)cc3)CC2)cc1,inactive

# Later entries

row,SMILES,Potency
1,COc1cc(C(=O)Nc2nnc(CC(=O)NCc3ccccc3)s2)cc(OC)c1OC,"inconclusive: 2 µM [activator, full curve]"
2,O=C(Nc1ccc(N2CCOCC2)cc1)Nc1ccc2nc(-c3ccco3)c(-c3ccco3)nc2c1,inactive
3,Cc1ccc(S(=O)(=O)NC2CCCC(C(=O)O)C2)cc1 (stereo not drawn),"inconclusive: 8.91 µM [activator, partial curve]"
4,CS(=O)(=O)N1CCN(c2ncccn2)CC1,inactive
5,Cc1ccc(-c2ccnc(=S)[nH]2)cc1,"inconclusive: 22.4 µM [activator, single point]"
6,O=C1c2cccnc2C(=O)N1Cc1ccc(S(=O)(=O)N2CCOc3ccccc32)cc1,"inconclusive: 2 µM [activator, full curve]"
7,Cc1ccc(S(=O)(=O)N2CCN(C(=O)CSc3ccc(Cl)cc3)CC2)cc1,"inconclusive: 2.82 µM [activator, single point]"
8,O=c1c2cn[nH]c2[nH]c(=S)n1-c1ccccc1,"inconclusive: 7.08 µM [activator, partial curve]"
9,COCCN1CCn2c(nc3cc(NC(C)=O)ccc32)C1,inactive
10,CCOC(=O)C1=C(CNCc2ccc(C)cc2)NC(=O)NC1c1cc(C)ccc1C (stereo not drawn),"inconclusive: 20 µM [activator, single point]"
11,CCOC(=O)CSc1nnc(CNC(=O)c2cccc(C)c2)n1-c1ccccc1OC,"inconclusive: 15.8 µM [activator, single point]"
12,O=S1(=O)N=C(N/N=C/c2ccccn2)c2ccccc21,active: 22.4 µM
13,COc1ccc(Nc2nnc(SCC(=O)c3cc4ccccc4o3)s2)cc1,inactive
14,CCN(CC)C(=O)c1cccc(NC(=O)C2=COCCO2)c1,active: 2.24 µM
15,CC(C)c1nc2sc3c(=O)[nH]c(=S)[nH]c3c2c2c1CCC2,"inconclusive: 20 µM [activator, single point]"
16,COc1cccc(C2NC(=O)NC(C)=C2C(=O)OCC2CCCCC2)c1 (stereo not drawn),inactive
17,Cc1ccc(N/C=C/c2onc(C)c2[N+](=O)[O-])cc1,inactive
18,CCc1ccc(-c2cc3c(=O)n(CC(=O)NCCCN4CCN(C)CC4)ncn3n2)cc1,"inconclusive: 4.47 µM [activator, single point]"
19,CCN(CC)C(=O)c1cccc2c1C(=O)c1ccccc1-2,"inconclusive: 20 µM [activator, single point]"
20,Cc1ccc(C)c(N2CCN(C(=O)CCCN3C(=S)NC(C)(C)CC3C)CC2)c1 (stereo not drawn),"inconclusive: 11.2 µM [activator, single point]"
21,O=C(CSc1nc2ccc(Cl)cc2[nH]1)NC1CCCc2ccccc21 (stereo not drawn),"inconclusive: 25.1 µM [activator, single point]"
22,O=C1c2oc3ccc(F)cc3c(=O)c2C(c2cccc(O)c2)N1CCCN1CCOCC1 (stereo not drawn),inactive
23,O=C(Nc1cccc(-c2nn[nH]n2)c1)c1csc2c1CCCC2,"inconclusive: 22.4 µM [activator, single point]"
